Experimental data taken from PubChem BioAssay AID1347076 (National Center for Advancing Translational Sciences (NCATS), 2019).
Out of some 400,000 compounds screened, about 13,000 (3.2%) were called active. Inconclusive means that the source gave no clear call. Such entries were picked first, then a sample of the others. Calls follow the shape of the dose curve; as a rule, active = well fitted cell-killing curve with a large enough effect; inconclusive = small, poorly fitted or top-dose-only effect, or effect the other way; inactive = flat fitted curve, though single readings scatter. Potencies of inconclusive entries are doubtful fits and often do not repeat.

Assay: qHTS assay for MDR1-selective chemotherapeutics: Primary screen using the drug-selected MDR subline cells KB-V1; also: nearly all actives have a fitted effect of over 60% in size
Conditions: KB-V1 MDR cells viability, CellTiter-Glo, 72 h; activity change, negative = cytotoxicity: at 46.1 µM (top of the series)
How it was run: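 Luminescent ATP read-out (CellTiter-Glo, 10 min) measures survival of drug-selected KB-V1 MDR cells after 72 h, 37 degrees C compound exposure. Medium: phenol-red-free DMEM, 10% FBS. Values from fitted concentration-response curves.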
% is scaled to controls: 0 for no effect and ±100 for the full control effect; potency is read from the fitted curve at half-maximal effect.

SMILES | Potency | activity change, negative = cytotoxicity
Cc1cc(C(=O)NCc2cccc(Cl)c2)c2ccccc2n1 | inconclusive: 9.2 µM [cytotoxic, partial curve] | –
N#CC1(NC(=O)COc2cccnc2[N+](=O)[O-])CCCCC1 | – | inconclusive: -48.4%
CN1CCN(C(=O)c2ccccc2NC(=O)CCN2C(=O)c3ccccc3C2=O)CC1 | inactive | –
O=C(Nc1ccccc1)C(c1ccccc1)c1ccccc1 | – | inconclusive: -32.8% [cytotoxic]
Cc1nc2nc(-c3cccs3)[nH]c2cc1Br | inconclusive: 29.1 µM [cytotoxic, single point] | –
COc1cc(Cn2nnc3ccccc32)cc(Br)c1O | inactive | –
COc1ccc(-c2nnc(SCC(=O)c3[nH]c(C)c(C(C)=O)c3C)o2)cc1 | inconclusive: 9.2 µM [cytotoxic, partial curve] | –
O=C(O)CC/C(=N\Nc1ccc(S(=O)(=O)N2CCCC2)cc1[N+](=O)[O-])c1cccs1 | inconclusive: 11.6 µM [cytotoxic, partial curve] | –
C=CCn1c(SCc2ccc(C(=O)NCCO)cc2)nc2ccccc2c1=O | inconclusive: 23.1 µM [cytotoxic, single point] | –
CC(OC(=O)c1ccc(Cl)nc1)C(=O)NC(C)(C)C (stereo unspecified) | inactive | –
NS(=O)(=O)c1ccc(CNC(=O)c2ccc(Cl)c([N+](=O)[O-])c2)cc1 | inactive | –
Cc1c(-c2ccccc2)oc2c(C(=O)N3CCN(c4ccc([N+](=O)[O-])cc4)CC3)cccc2c1=O | inconclusive: 4.61 µM [cytotoxic, full curve] | –
COc1cccc(N2CCN(c3ncnc4c3cnn4-c3ccc(C)cc3C)CC2)c1 | inconclusive: 18.4 µM [cytotoxic, single point] | –
Cc1csc(NC(=O)c2cc(-c3ccccc3)nc3ccccc23)n1 | active: 2.31 µM | –
O=C(COC(=O)c1ccccc1Br)Nc1ccccc1F | inactive | –
CC(C)(C)S(=O)N1Cc2cc(C(=O)NCC(F)(F)F)nc(-c3cccc(-c4cccc(F)c4)c3)c2[C@@H]1CCO (stereo partly specified) | inconclusive: 29.1 µM [cytotoxic, single point] | –
NC1=NC(=O)C(Cc2ccc(OC(F)(F)F)cc2)S1 (stereo unspecified) | inactive | –
CC(C)c1ccc(/C=C/C(=O)Nc2ccc(CN3CCOCC3)cc2)cc1 | active: 16.4 µM | –
COCc1cc(CN2CCCC(C(=O)Nc3ccc(-c4ccco4)cc3)C2)ccc1OC (stereo unspecified) | inactive | –
Cc1noc(C)c1C(=O)OCC(=O)Nc1ccccc1C(=O)NC(C)c1ccccc1 (stereo unspecified) | inconclusive: 14.6 µM [cytotoxic, partial curve, poor fit] | –
CC(C)c1ccc(S(=O)(=O)N2CCN(C(=O)Cc3ccsc3)CC2)cc1 | inconclusive: 13 µM [cytotoxic, partial curve, poor fit] | –
CCCCNC(=O)C[C@@H]1C[C@@]2(C(=O)OC)CCCCC=C2N(Cc2ccc3c(c2)OCO3)C1=O | inconclusive: 4.61 µM [cytotoxic, partial curve, poor fit] | –
COCCOC(=O)C1=C(C)N(c2ccccc2)C(=O)NC1c1cccc([N+](=O)[O-])c1 (stereo unspecified) | inactive | –

Some of the entries above in another layout:
SMILES,Potency,"activity change, negative = cytotoxicity"
Cc1cc(C(=O)NCc2cccc(Cl)c2)c2ccccc2n1,"inconclusive: 9.2 µM [cytotoxic, partial curve]",–
O=C(O)CC/C(=N\Nc1ccc(S(=O)(=O)N2CCCC2)cc1[N+](=O)[O-])c1cccs1,"inconclusive: 11.6 µM [cytotoxic, partial curve]",–
CC(OC(=O)c1ccc(Cl)nc1)C(=O)NC(C)(C)C (stereo unspecified),inactive,–
COc1cccc(N2CCN(c3ncnc4c3cnn4-c3ccc(C)cc3C)CC2)c1,"inconclusive: 18.4 µM [cytotoxic, single point]",–
Cc1csc(NC(=O)c2cc(-c3ccccc3)nc3ccccc23)n1,active: 2.31 µM,–
CC(C)(C)S(=O)N1Cc2cc(C(=O)NCC(F)(F)F)nc(-c3cccc(-c4cccc(F)c4)c3)c2[C@@H]1CCO (stereo partly specified),"inconclusive: 29.1 µM [cytotoxic, single point]",–
NC1=NC(=O)C(Cc2ccc(OC(F)(F)F)cc2)S1 (stereo unspecified),inactive,–
CC(C)c1ccc(S(=O)(=O)N2CCN(C(=O)Cc3ccsc3)CC2)cc1,"inconclusive: 13 µM [cytotoxic, partial curve, poor fit]",–
CCCCNC(=O)C[C@@H]1C[C@@]2(C(=O)OC)CCCCC=C2N(Cc2ccc3c(c2)OCO3)C1=O,"inconclusive: 4.61 µM [cytotoxic, partial curve, poor fit]",–

Next compounds

SMILES | Potency | activity change, negative = cytotoxicity
COc1cc([N+](=O)[O-])cc(/C=N/NC(=O)c2cc(C)nc3ccccc23)c1O | inactive | –
CCOC(=O)COc1ccc([N+](=O)[O-])cc1-c1ccnc2cc(-c3ccc(Cl)cc3)nn12 | inconclusive: 29.1 µM [rising, single point] | –
Cc1ccccc1NS(=O)(=O)c1ccc(C(=O)N2CCN(S(=O)(=O)c3ccccc3)CC2)cc1 | inconclusive: 20.6 µM [cytotoxic, single point] | –
O=C1CC(SC2=NCCS2)C(=O)N1c1ccc(Br)cc1 (stereo unspecified) | inconclusive: 25.9 µM [rising, partial curve, poor fit] | –
O=S(=O)(c1ccc(Cl)cc1)N1CCN(Cc2ccc(O)c3ncccc23)CC1 | inconclusive: 1.64 µM [cytotoxic, full curve] | –
O=C1Nc2ccccc2C(=O)N2CCCCC12 (stereo unspecified) | inconclusive: 0.58 µM [rising, full curve, poor fit] | –
Fc1cccc(Cc2c(-c3ccco3)nc3c(Cl)cc(C(F)(F)F)cn23)c1 | inconclusive: 20.6 µM [cytotoxic, partial curve, poor fit] | –
Cc1ccccc1-n1c(SCC(=O)N2CCCC2)nnc1-c1ccccn1 | inactive | –
Cc1cc(=O)oc(C)c1C(=O)OC(C(=O)c1ccccc1)c1ccccc1 (stereo unspecified) | active: 23.1 µM | –
CCCCOC(=O)c1sc2nc(N3CCOCC3)c3c(c2c1N)CC(C)(C)OC3 | inactive | –
O=[N+]([O-])c1ccc(-c2cn3ccccc3n2)cc1 | inconclusive: 14.6 µM [cytotoxic, partial curve] | –
CCCCc1ccc(NC(=S)NCCc2ccc(F)cc2)cc1 | inconclusive: 29.1 µM [cytotoxic, single point] | –
O=C(/C=C/c1ccccc1)N1CCN(CCN2C(=O)c3cccc4cccc(c34)C2=O)CC1 | inactive | –
CCNC(=S)N/N=C/c1cccc(/C=N/NC(=S)NCC)c1 | inactive | –
CCC1=Nc2cc(C(=O)NCCCOC)ccc2Sc2ccc(Br)cc21 | inconclusive: 0.58 µM [cytotoxic, full curve, poor fit] | –
COc1ccc2nc(SCC(=O)NC3CCCC3)c(C)cc2c1 | inconclusive: 5.8 µM [cytotoxic, full curve, poor fit] | –
CC(=O)NC(=S)NNC(=O)COc1ccc(Br)cc1 | inconclusive: 18.4 µM [cytotoxic, partial curve, poor fit] | –
c1ccc(-c2ccccc2OCCN2CCCCC2)cc1 | inconclusive: 18.4 µM [cytotoxic, single point] | –
CNC(=O)C1CCC(Cn2c(=O)c3sccc3n(CC(=O)NCc3ccccc3)c2=O)CC1 (stereo unspecified) | inactive | –
CC(NC(=O)CCl)c1ccc(Cl)c(Cl)c1 (stereo unspecified) | inactive | –
Cc1cc(Nc2ccccc2)nc(NCc2ccccc2)n1 | active: 10.3 µM | –
CCCc1ccc(S(=O)(=O)N/N=C(/C)c2ccc3c(c2)OCO3)cc1 | inactive | –
O=C(c1cc(-c2ccccc2)nn1-c1ccccc1)N1CCN(S(=O)(=O)c2c(F)cccc2F)CC1 | inconclusive: 7.31 µM [cytotoxic, partial curve] | –
